Laboratory results taken from the supplement of paper PMC10849652.
This is one part of the list.

Protein sequences, listed by entry. Tags and fused reporters are not part of them. Lines headed by an entry give the natural chain unless they say otherwise; changes in a name come on top.
UniProt P54852: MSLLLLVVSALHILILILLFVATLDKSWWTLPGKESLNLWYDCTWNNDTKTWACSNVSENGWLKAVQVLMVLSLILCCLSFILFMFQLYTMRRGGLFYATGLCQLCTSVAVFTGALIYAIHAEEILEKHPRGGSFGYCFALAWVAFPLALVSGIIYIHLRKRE
UniProt P06730, whole entry, looked up: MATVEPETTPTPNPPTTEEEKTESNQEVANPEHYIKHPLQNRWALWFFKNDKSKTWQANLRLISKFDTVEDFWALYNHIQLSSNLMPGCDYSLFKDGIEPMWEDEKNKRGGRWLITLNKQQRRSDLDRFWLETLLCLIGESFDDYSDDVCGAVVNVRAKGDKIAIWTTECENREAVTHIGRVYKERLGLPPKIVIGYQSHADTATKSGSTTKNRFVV
UniProt O75356: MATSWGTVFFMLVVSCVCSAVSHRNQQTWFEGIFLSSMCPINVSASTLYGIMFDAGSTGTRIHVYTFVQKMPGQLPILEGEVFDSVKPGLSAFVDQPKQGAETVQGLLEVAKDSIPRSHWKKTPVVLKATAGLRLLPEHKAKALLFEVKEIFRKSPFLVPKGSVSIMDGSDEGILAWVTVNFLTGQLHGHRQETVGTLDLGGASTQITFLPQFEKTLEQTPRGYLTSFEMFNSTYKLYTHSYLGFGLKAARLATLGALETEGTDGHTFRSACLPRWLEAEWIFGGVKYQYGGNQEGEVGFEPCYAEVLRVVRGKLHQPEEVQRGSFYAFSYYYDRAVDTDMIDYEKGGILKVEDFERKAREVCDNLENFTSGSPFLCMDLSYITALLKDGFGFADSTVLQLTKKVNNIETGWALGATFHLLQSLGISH
UniProt P07814: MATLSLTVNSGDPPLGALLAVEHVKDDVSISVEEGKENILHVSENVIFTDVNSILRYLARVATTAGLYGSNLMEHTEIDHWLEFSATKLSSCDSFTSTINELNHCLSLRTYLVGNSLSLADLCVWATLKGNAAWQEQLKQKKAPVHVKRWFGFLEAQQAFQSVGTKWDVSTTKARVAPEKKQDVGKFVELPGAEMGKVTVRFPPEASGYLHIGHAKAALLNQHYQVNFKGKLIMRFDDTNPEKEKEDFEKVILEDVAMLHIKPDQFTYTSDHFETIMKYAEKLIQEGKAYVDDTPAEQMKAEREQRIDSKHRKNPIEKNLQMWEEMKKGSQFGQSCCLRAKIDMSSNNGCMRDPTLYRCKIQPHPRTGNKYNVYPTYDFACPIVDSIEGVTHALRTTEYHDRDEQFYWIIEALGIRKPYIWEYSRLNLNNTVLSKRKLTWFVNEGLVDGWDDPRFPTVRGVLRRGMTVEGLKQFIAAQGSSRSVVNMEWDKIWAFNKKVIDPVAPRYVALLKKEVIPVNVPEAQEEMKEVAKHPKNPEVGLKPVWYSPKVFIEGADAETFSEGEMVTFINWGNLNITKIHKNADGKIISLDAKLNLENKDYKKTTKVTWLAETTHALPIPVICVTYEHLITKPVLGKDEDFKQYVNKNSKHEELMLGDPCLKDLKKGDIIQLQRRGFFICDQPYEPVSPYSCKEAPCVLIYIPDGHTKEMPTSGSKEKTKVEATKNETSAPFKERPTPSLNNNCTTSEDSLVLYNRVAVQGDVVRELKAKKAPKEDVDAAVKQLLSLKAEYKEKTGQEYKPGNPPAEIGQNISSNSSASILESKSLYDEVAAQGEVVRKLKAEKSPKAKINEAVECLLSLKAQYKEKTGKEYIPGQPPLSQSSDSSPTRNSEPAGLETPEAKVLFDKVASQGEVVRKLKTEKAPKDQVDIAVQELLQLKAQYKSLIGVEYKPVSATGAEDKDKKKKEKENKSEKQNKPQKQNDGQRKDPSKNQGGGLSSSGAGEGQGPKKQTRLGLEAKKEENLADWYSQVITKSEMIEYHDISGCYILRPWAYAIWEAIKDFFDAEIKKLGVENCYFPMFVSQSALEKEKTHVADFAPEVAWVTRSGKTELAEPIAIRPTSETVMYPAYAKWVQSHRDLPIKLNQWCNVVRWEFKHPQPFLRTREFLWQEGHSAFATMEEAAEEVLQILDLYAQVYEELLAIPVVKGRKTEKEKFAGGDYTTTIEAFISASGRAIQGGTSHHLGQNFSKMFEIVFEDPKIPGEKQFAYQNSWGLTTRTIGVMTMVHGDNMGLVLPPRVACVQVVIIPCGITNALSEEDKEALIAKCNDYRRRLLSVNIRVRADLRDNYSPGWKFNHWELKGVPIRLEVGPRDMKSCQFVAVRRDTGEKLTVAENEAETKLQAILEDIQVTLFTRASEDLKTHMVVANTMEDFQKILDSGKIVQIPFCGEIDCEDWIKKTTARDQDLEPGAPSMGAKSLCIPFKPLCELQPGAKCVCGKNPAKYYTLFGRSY
UniProt Q9UI10, whole entry, looked up: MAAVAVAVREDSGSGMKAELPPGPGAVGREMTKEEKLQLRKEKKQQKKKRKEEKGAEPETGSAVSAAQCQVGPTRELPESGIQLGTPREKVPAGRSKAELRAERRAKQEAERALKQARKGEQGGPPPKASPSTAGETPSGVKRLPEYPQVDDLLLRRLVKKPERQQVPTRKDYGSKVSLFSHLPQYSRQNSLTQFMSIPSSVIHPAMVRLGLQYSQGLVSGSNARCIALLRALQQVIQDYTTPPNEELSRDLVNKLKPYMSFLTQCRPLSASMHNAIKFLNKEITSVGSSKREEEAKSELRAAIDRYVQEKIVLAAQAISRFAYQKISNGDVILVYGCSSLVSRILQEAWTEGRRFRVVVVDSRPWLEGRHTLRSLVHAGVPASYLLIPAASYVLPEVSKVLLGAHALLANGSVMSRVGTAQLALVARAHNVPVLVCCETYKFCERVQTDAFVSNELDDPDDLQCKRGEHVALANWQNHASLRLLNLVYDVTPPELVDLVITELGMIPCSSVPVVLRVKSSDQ
UniProt Q5J8M3, whole entry, looked up: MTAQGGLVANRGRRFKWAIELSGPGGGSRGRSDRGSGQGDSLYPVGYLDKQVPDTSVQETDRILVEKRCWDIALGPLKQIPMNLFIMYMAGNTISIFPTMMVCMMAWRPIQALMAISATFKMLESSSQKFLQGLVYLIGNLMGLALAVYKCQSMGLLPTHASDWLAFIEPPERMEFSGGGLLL
UniProt Q6IA86: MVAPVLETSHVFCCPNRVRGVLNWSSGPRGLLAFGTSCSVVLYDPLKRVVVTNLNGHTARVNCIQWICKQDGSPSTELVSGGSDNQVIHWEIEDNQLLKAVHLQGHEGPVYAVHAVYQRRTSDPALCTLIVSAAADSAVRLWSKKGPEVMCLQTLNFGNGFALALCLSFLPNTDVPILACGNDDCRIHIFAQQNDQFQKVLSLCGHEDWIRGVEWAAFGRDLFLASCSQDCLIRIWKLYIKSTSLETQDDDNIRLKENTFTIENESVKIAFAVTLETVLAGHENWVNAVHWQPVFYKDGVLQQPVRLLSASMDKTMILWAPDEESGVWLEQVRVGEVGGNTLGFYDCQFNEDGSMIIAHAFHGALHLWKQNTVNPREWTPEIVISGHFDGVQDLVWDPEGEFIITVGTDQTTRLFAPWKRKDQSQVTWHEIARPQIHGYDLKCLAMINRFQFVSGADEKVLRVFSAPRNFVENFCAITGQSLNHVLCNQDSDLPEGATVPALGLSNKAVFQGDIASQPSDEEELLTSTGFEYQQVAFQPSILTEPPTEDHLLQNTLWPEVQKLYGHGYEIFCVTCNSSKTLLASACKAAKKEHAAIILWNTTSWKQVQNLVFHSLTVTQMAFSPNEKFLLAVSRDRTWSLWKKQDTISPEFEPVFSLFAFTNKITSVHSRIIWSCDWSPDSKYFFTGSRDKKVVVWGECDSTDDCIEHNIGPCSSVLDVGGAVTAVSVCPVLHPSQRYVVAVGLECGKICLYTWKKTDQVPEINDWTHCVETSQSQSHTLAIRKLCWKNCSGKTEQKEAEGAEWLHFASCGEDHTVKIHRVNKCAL
UniProt Q8NFI3: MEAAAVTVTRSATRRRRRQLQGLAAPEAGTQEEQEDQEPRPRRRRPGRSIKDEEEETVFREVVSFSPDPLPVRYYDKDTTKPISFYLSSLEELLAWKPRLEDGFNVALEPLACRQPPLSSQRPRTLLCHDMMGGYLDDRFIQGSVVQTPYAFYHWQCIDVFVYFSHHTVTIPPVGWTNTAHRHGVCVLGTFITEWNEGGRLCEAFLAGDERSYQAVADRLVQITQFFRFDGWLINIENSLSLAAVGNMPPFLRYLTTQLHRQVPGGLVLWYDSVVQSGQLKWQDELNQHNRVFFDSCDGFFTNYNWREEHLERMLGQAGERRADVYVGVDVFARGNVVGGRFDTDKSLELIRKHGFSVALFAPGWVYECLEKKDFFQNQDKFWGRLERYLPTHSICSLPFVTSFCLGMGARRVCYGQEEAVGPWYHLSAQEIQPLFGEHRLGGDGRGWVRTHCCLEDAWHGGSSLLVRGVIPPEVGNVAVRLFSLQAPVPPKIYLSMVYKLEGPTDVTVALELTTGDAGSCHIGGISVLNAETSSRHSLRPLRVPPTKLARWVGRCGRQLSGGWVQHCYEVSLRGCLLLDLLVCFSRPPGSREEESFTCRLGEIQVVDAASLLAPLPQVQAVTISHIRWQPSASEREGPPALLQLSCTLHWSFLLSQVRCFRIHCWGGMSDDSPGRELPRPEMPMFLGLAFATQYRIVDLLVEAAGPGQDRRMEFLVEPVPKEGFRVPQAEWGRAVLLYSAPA
UniProt O14638, whole entry, looked up: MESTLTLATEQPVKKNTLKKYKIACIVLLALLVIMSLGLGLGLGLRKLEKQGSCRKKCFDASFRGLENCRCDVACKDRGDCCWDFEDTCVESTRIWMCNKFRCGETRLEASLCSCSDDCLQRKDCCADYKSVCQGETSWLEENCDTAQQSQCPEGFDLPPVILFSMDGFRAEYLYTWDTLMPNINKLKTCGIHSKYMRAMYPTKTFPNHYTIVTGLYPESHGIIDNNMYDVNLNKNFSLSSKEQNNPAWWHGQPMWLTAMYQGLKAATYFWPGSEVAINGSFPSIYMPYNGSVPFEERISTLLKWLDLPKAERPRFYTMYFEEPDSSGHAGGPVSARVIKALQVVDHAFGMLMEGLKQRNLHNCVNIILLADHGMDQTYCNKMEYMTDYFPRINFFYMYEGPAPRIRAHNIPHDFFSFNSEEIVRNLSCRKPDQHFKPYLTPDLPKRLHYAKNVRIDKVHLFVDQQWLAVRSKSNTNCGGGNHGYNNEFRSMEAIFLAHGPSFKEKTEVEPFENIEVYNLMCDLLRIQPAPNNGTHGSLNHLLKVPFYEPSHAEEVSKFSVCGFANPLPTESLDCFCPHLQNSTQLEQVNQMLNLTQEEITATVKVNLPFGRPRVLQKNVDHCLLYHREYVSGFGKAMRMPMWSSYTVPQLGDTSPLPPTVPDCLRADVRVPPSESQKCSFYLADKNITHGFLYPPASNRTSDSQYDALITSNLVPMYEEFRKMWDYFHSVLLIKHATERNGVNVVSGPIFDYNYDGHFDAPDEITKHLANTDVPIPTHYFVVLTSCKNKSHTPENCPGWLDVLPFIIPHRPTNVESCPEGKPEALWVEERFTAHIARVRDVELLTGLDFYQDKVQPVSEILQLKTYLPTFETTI
UniProt Q14249: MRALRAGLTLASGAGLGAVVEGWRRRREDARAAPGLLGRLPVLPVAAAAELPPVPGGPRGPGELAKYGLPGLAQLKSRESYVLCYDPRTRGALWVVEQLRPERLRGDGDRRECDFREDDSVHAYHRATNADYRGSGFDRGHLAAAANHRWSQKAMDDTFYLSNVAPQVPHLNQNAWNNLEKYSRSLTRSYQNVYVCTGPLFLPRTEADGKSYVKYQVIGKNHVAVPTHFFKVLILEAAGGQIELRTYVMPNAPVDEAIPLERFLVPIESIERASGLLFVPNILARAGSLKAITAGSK
UniProt Q9Y6I3: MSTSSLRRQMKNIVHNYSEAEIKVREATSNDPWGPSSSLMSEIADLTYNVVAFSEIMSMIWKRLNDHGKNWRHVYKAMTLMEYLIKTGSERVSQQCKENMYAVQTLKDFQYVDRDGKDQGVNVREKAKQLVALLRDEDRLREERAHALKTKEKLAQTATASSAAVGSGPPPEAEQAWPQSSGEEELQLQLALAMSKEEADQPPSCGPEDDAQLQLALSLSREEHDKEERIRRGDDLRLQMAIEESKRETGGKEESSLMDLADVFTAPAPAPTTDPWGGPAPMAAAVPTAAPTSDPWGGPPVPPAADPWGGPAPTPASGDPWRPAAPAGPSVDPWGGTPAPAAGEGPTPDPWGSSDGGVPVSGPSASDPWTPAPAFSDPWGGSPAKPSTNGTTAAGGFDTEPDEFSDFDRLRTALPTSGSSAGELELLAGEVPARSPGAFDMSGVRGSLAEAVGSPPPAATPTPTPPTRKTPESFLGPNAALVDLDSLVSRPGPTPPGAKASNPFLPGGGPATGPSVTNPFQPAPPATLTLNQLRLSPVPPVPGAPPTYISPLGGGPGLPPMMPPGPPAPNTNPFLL
UniProt P50402: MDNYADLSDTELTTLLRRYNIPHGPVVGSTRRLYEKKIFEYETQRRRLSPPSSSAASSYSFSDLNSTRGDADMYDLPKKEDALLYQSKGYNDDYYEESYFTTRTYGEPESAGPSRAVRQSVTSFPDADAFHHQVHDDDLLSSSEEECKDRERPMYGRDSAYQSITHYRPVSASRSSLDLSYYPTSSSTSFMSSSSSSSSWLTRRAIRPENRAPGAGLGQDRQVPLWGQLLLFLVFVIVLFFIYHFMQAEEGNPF

These targets were tested with CN1CCN(CCOc2cc(OC3CCOCC3)c3c(Nc4c(Cl)ccc5c4OCO5)ncnc3c2)CC1 [saracatinib] (assay: log2 fold change, soluble protein after heating vs DMSO (PISA); higher = thermal stabilisation; K562 lysate, 10 uM; active = over 0.2 and 3.5 SD of the protein, either way, in both replicates (recomputed)).
Method in brief: (§1)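 Thermal stability, expressed as log-two fold change relative to solvent controls, is given from duplicates. Crude K562 extract in PBS pH 7.4 with 1 mM MgCl2, at 1 mg/mL protein, was treated with 10 μM compound for 30 min and heated in aliquots for 3 min across 48°C-58°C. After pooling, adjustment to 0.5% NP-40 at 4°C and centrifugation at 21,000xg for 90 min, supernatant protein was measured by TMTpro 16plex LC-MS/MS with channel sums equalised.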
With EMP3 (UniProt P54852) the log2 fold change was inactive: 0.049. For EIF4E isoform 2 (UniProt P06730), the log2 fold change was inactive: -0.023. In the case of ENTPD5 (UniProt O75356), the log2 fold change is reported as inactive: -0.041. EPRS (UniProt P07814) was tested, and the log2 fold change was inactive: 0.014. For EIF2B4 isoform 2 (UniProt Q9UI10), the log2 fold change was inactive: 0.006. In the case of EMC4 (UniProt Q5J8M3), the log2 fold change is reported as inactive: 0.123. In the case of ELP2 isoform 6 (UniProt Q6IA86), the log2 fold change is reported as inactive: 0.007. In the case of ENGASE (UniProt Q8NFI3), the log2 fold change is reported as inactive: -0.019. ENPP3 (UniProt O14638) was tested, and the log2 fold change was inactive: 0.032. ENDOG (UniProt Q14249) was tested, and the log2 fold change was inactive: -0.013. With EPN1 (UniProt Q9Y6I3) the log2 fold change was inactive: 0.026. EMD (UniProt P50402) was tested, and the log2 fold change was inactive: 0.012.

These targets were tested with CN1CCN(c2nc(C3=C(c4c[nH]c5ccccc45)C(=O)NC3=O)c3ccccc3n2)CC1 [sotrastaurin] in the same assay as above.
Method in brief: as §1
EIF3G (UniProt K7ER90) was tested, and the log2 fold change was inactive: 0.008. EP300 (UniProt Q09472) was tested, and the log2 fold change was inactive: -0.022. ERGIC2 (UniProt Q96RQ1) was tested, and the log2 fold change was inactive: -0.016. In the case of ERAL1 (UniProt O75616), the log2 fold change is reported as inactive: 0.02. In the case of EIF3F (UniProt O00303), the log2 fold change is reported as inactive: 0.038. EMC3 (UniProt Q9P0I2) was tested, and the log2 fold change was inactive: -0.026. With ELMO1 (UniProt Q92556) the log2 fold change was inactive: 0.082. In the case of ERC1 (UniProt X6RLX0), the log2 fold change is reported as inactive: -0.007. For EIF3B isoform 2 (UniProt P55884), the log2 fold change was inactive: 0.01. In the case of ERI1 (UniProt Q8IV48), the log2 fold change is reported as inactive: 0.034. For ENY2 (UniProt Q9NPA8), the log2 fold change was inactive: -0.003. With EMC7 (UniProt Q9NPA0) the log2 fold change was inactive: 0.026. For EMC6 (UniProt Q9BV81), the log2 fold change was inactive: -0.008. For EIF2D (UniProt P41214), the log2 fold change was inactive: 0.026. For EIF2S3 (UniProt P41091), the log2 fold change was inactive: -0.018. ELF2 (UniProt Q15723) was tested, and the log2 fold change was inactive: -0.004. In the case of ERH (UniProt P84090), the log2 fold change is reported as inactive: 0.006. In the case of EPHX2 (UniProt P34913), the log2 fold change is reported as inactive: 0.06. For EPS15L1 isoform 2 (UniProt Q9UBC2), the log2 fold change was inactive: 0.006. For ERCC4 (UniProt Q92889), the log2 fold change was inactive: 0.047. For ERCC3 (UniProt P19447), the log2 fold change was inactive: 0.021. With EPPK1 (UniProt P58107) the log2 fold change was inactive: 0.022. EIF6 (UniProt P56537) was tested, and the log2 fold change was inactive: -0.008. For ENSA isoform 3 (UniProt O43768), the log2 fold change was inactive: -0.007. EMP3 (UniProt P54852) was tested, and the log2 fold change was inactive: -0.029. For EIF4E isoform 2 (UniProt P06730), the log2 fold change was inactive: -0.005. For ENTPD5 (UniProt O75356), the log2 fold change was inactive: 0.014. In the case of EPRS (UniProt P07814), the log2 fold change is reported as inactive: 0.02. EIF2B4 isoform 2 (UniProt Q9UI10) was tested, and the log2 fold change was inactive: -0.004. For EMC4 (UniProt Q5J8M3), the log2 fold change was inactive: -0.014. For ELP2 isoform 6 (UniProt Q6IA86), the log2 fold change was inactive: 0.021. In the case of ENGASE (UniProt Q8NFI3), the log2 fold change is reported as inactive: -0.008. For ENPP3 (UniProt O14638), the log2 fold change was inactive: 0.019. In the case of ENDOG (UniProt Q14249), the log2 fold change is reported as inactive: -0.006. For EPN1 (UniProt Q9Y6I3), the log2 fold change was inactive: -0.008. EMD (UniProt P50402) was tested, and the log2 fold change was inactive: -0.007.

The targets below were run with CN1CC[C@H](c2c(O)cc(O)c3c(=O)cc(-c4ccccc4Cl)oc23)[C@H](O)C1 [alvocidib] in the same assay as above.
Method in brief: as §1
EIF3G (UniProt K7ER90) was tested, and the log2 fold change was inactive: 0.007. With EP300 (UniProt Q09472) the log2 fold change was inactive: -0.098. In the case of ERGIC2 (UniProt Q96RQ1), the log2 fold change is reported as inactive: 0.033. In the case of ERAL1 (UniProt O75616), the log2 fold change is reported as inactive: 0.005. For EIF3F (UniProt O00303), the log2 fold change was inactive: 0.01. EMC3 (UniProt Q9P0I2) was tested, and the log2 fold change was inactive: 0.03. For ELMO1 (UniProt Q92556), the log2 fold change was inactive: -0.004. With ERC1 (UniProt X6RLX0) the log2 fold change was inactive: 0.005. With EIF3B isoform 2 (UniProt P55884) the log2 fold change was inactive: 0. For ERI1 (UniProt Q8IV48), the log2 fold change was inactive: 0.008. With ENY2 (UniProt Q9NPA8) the log2 fold change was active: 0.351. For EMC7 (UniProt Q9NPA0), the log2 fold change was inactive: -0.146. For EMC6 (UniProt Q9BV81), the log2 fold change was inactive: 0.039. EIF2D (UniProt P41214) was tested, and the log2 fold change was inactive: 0.017. With EIF2S3 (UniProt P41091) the log2 fold change was inactive: 0. In the case of ELF2 (UniProt Q15723), the log2 fold change is reported as inactive: 0.023. In the case of ERH (UniProt P84090), the log2 fold change is reported as inactive: 0.001. In the case of EPHX2 (UniProt P34913), the log2 fold change is reported as inactive: -0.018. With EPS15L1 isoform 2 (UniProt Q9UBC2) the log2 fold change was inactive: 0.017. In the case of ERCC4 (UniProt Q92889), the log2 fold change is reported as inactive: -0.268. In the case of ERCC3 (UniProt P19447), the log2 fold change is reported as inactive: 0.03. With EPPK1 (UniProt P58107) the log2 fold change was inactive: 0.038. EIF6 (UniProt P56537) was tested, and the log2 fold change was inactive: -0.044. With ENSA isoform 3 (UniProt O43768) the log2 fold change was inactive: 0.015. In the case of EMP3 (UniProt P54852), the log2 fold change is reported as inactive: -0.227. For EIF4E isoform 2 (UniProt P06730), the log2 fold change was inactive: -0.02. For ENTPD5 (UniProt O75356), the log2 fold change was inactive: -0.012. With EPRS (UniProt P07814) the log2 fold change was inactive: 0.012. In the case of EIF2B4 isoform 2 (UniProt Q9UI10), the log2 fold change is reported as inactive: -0.015. With EMC4 (UniProt Q5J8M3) the log2 fold change was inactive: 0.016. In the case of ELP2 isoform 6 (UniProt Q6IA86), the log2 fold change is reported as inactive: -0.038. For ENGASE (UniProt Q8NFI3), the log2 fold change was inactive: -0.144. For ENPP3 (UniProt O14638), the log2 fold change was inactive: 0.009. For ENDOG (UniProt Q14249), the log2 fold change was inactive: 0.046. For EPN1 (UniProt Q9Y6I3), the log2 fold change was inactive: -0.01. In the case of EMD (UniProt P50402), the log2 fold change is reported as inactive: 0.006.
